Where “and” joins values, the source holds several entries; their conditions need not be identical. Equal entries are not always repeated. Some of the results follow. Single values are uncertain here, since repeats match poorly.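 Flies heterozygous for the ATM8 allele over a balancer chromosome carrying normal ATM were mated with each other on treated food. Parents laid eggs for 5–6 days and the young then developed for about 12 days, so both parents and larvae ate the compound. The read-out is the share of all emerged adults that carry two ATM8 copies, compared with 2% DMSO control vials. The paper called compounds neutral at 10–20% such offspring, harmful below 10%, and helpful above 20%.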
tested on: Drosophila melanogaster ATM8 (temperature-sensitive ATM allele); test: fraction of eclosed F1 progeny that are homozygous ATM8 (rescue of developmental lethality); higher = more rescue of ATM8 developmental lethality; extreme values may be limits of the assay; conditions: compound concentration applied to food 0.2 mM; 21 °C

| SMILES | fraction of eclosed F1 progeny that are homozygous ATM8 |
| --- | --- |
| C[C@](N)(Cc1ccc(O)cc1)C(=O)O [alpha-METHYL-L-TYROSINE] | 0.115 |
| Cc1cccc(C)c1NC(=O)c1ccccc1C(=O)O | 0.28 |
| O=C1CC(c2ccccc2)Oc2ccccc21 (stereo unspecified) | 0.0385 |
| CS(=O)(=O)c1ccc([C@@H](O)[C@@H](CF)NC(=O)C(Cl)Cl)cc1 | 0.146 |
| C=C(CC)C(=O)c1ccc(OCC(=O)O)c(Cl)c1Cl | 0 |
| CC(C)c1nc(N(C)S(C)(=O)=O)nc(-c2ccc(F)cc2)c1/C=C/[C@@H](O)C[C@@H](O)CC(=O)O | 0.288 |
| C[N+](C)(C)CCOP(=O)(O)OP(=O)([O-])OC[C@H]1O[C@@H](n2ccc(N)nc2=O)[C@H](O)[C@@H]1O | 0 |
| Nc1ccc(S(=O)(=O)NC(=O)c2ccccc2)cc1 | 0.152 |
| CC[C@H](CC[C@@H](C)[C@H]1CC[C@H]2[C@@H]3CC=C4C[C@@H](OC(C)=O)CC[C@]4(C)[C@H]3CC[C@]12C)C(C)C | 0.16 |
| C[C@]12CC[C@@H](O)C[C@H]1CCc1ccccc12 [3alpha-HYDROXY-4,4-BISNOR-8,11,13-PODOCARPATRIENE] | 0.0645 |
| CCOC(=O)[C@H](CCc1ccccc1)N[C@@H](C)C(=O)N1[C@H](C(=O)O)C[C@H]2CCCC[C@@H]21 | 0.234 |
| O=C(O[C@@H]1Cc2c(O)cc(O)cc2O[C@@H]1c1cc(O)c(O)c(O)c1)c1cc(O)c(O)c(O)c1 | 0.1 |
| CC[C@H]1CN2CCc3cc(OC)c(OC)cc3[C@@H]2C[C@@H]1C[C@H]1NCCc2cc(OC)c(OC)cc21 | 0.118 |
| CC(C(=O)O)[C@H]1CCC2C3CC=C4C[C@@H](O)CC[C@]4(C)C3CC[C@@]21C (stereo partly drawn) [3beta-HYDROXY-23,24-BISNORCHOL-5-ENIC ACID] | 0.161 |
| COc1c(Cl)c(C)c(C(=O)Oc2cc(C)c(C(=O)O)c(O)c2)c(O)c1Cl | 0.146 |
| CCN(CC)CCNC(=O)c1ccc(NC(C)=O)cc1 | 0.273 |
| CN1C(=O)CC(C)(c2ccccc2)C1=O (stereo unspecified) | 0.05 |
| N[C@H](Cc1ccccc1)C(=O)O | 0.162 |
| O=C1C=C2CC3(O)COc4cc(O)ccc4C3=C2C=C1O (stereo unspecified) | 0.137 |
| O=c1c(-c2ccc(O)cc2)coc2cc(O)cc(O)c12 | 0.265 |
| CCCc1nc(C)c2c(O)nc(-c3cc(S(=O)(=O)N4CCN(CC)CC4)ccc3OCC)nn12 | 0.242 |

Taken from above:
fraction of eclosed F1 progeny that are homozygous ATM8, `N[C@H](Cc1ccccc1)C(=O)O` reads 0.162
fraction of eclosed F1 progeny that are homozygous ATM8, `Nc1ccc(S(=O)(=O)NC(=O)c2ccccc2)cc1` reads 0.152
fraction of eclosed F1 progeny that are homozygous ATM8, `CCOC(=O)[C@H](CCc1ccccc1)N[C@@H](C)C(=O)N1[C@H](C(=O)O)C[C@H]2CCCC[C@@H]21` reads 0.234
fraction of eclosed F1 progeny that are homozygous ATM8, `O=C(O[C@@H]1Cc2c(O)cc(O)cc2O[C@@H]1c1cc(O)c(O)c(O)c1)c1cc(O)c(O)c(O)c1` reads 0.1
fraction of eclosed F1 progeny that are homozygous ATM8, `C[N+](C)(C)CCOP(=O)(O)OP(=O)([O-])OC[C@H]1O[C@@H](n2ccc(N)nc2=O)[C@H](O)[C@@H]1O` reads 0

Following part

| SMILES | fraction of eclosed F1 progeny that are homozygous ATM8 |
| --- | --- |
| O=C1C=CC(=C(c2ccc(O)cc2)c2ccc(O)cc2)C=C1 | 0.114 |
| CNC(=C[N+](=O)[O-])NCCSCc1ccc(CN(C)C)o1 | 0.114 |
| COc1cc([C@@H]2c3cc4c(cc3[C@H](O)[C@H]3COC(=O)[C@H]23)OCO4)cc(OC)c1OC | 0.253 |
| COC(=O)[C@H]1[C@H]2C[C@@H]3c4[nH]c5cc(OC)ccc5c4CCN3C[C@H]2C[C@@H](OC(=O)c2cc(OC)c(OC)c(OC)c2)[C@@H]1OC | 0.267 |
| COc1cc2c(cc1OC)-c1cc3ccc(OC)c(OC)c3c[n+]1CC2 | 0.125 and 0.115 |
| Cc1nc(C)c(Cl)c(O)c1Cl | 0.298 |
| Cc1ccc(O)cc1.Cc1cccc(O)c1.Cc1ccccc1O | 0.0256 |
| O=C(O)P(=O)(O)O | 0.14 |
| CCNC1(c2cccs2)CCCCC1=O (stereo unspecified) | 0.14 |
| CCCCCCCCCCCCCCCC[N+](C)(C)CCN(Cc1ccc(OC)cc1)c1ncccn1 | 0.0357 |
| C#C[C@]1(O)CC[C@H]2[C@@H]3CCc4cc(OC)ccc4[C@H]3CC[C@@]21C | 0.188 |
| CC(C)NCC(O)c1ccc(NS(C)(=O)=O)cc1 (stereo unspecified) | 0.15 |
| CC(=O)N1CCN(c2ccc(OCC3COC(Cn4ccnc4)(c4ccc(Cl)cc4Cl)O3)cc2)CC1 (stereo unspecified) | 0.125 |
| CCOc1ccccc1C(N)=O | 0.15 |
| COC(=O)C[C@H]1C(C)(C)[C@@H](OC(C)=O)[C@@H]2CC3=C4CC(=O)O[C@@H](c5ccoc5)[C@]4(C)CC[C@@H]3[C@@]1(C)C2=O | 0.182 |
| NS(=O)(=O)c1ccc(C(=O)O)cc1 | 0.164 |
| C[C@@H]1CC[C@H]2[C@@H](C)C(=O)O[C@@H]3O[C@@]4(C)CC[C@@H]1[C@]32OO4 | 0.226 |
| Cc1n[nH]c(=S)[nH]c1=O | 0.314 |
| CC[C@H]1[C@@H]2C[C@H]3[C@@H]4N(C)c5ccccc5[C@]45C[C@@H]([C@@H]2[C@H]5O)N3[C@@H]1O | 0.1 |
| CC(=O)O[C@@H]1C[C@@]2(C)C(CC[C@@H]2C(C)=O)C2CCC3=CC(=O)CC[C@]3(C)C21 (stereo partly specified) | 0.196 |
| CS(=N)(=O)CC[C@H](N)C(=O)O (stereo partly specified) | 0.118 |

| SMILES | fraction of eclosed F1 progeny that are homozygous ATM8 |
| --- | --- |
| C#C[C@]1(OC(C)=O)CC[C@H]2[C@@H]3CCC4=C[C@@H](OC(C)=O)CC[C@@H]4[C@H]3CC[C@@]21C | 0.182 |
| Nc1ccc(S(=O)(=O)Nc2ncccn2)cc1 | 0.0769 |
| C[C@@H]1CC[C@@]2(OC1)O[C@H]1C[C@H]3[C@@H]4CC[C@H]5C[C@@H](O)CC[C@]5(C)[C@H]4CC[C@]3(C)[C@H]1[C@@H]2C | 0.0938 |
| O=c1c(O)c(-c2ccccc2)oc2ccccc12 | 0.0714 |
| CO[C@@]1(NC(=O)C(C(=O)O)c2ccc(O)cc2)C(=O)N2C(C(=O)O)=C(CSc3nnnn3C)CO[C@@H]21 (stereo partly specified) | 0.0889 |
| C#C[C@]1(O)CC[C@H]2[C@@H]3CCC4=CC(=O)CC[C@@H]4[C@H]3CC[C@@]21C | 0.2 |
| COC(=O)C1=C(C)NC(C)=C(C(=O)OC)C1c1ccccc1[N+](=O)[O-] | 0.195 |
| COc1ccc2c(c1)[nH]c1c(C)nccc12 | 0.174 |
| Nc1ccc(O)c(C(=O)O)c1 | 0.148 |
| Cc1cc(OC(=O)c2c(C)cc(O)cc2O)cc(O)c1C(=O)O | 0.0526 |
| Clc1ccccc1CN1CCc2sccc2C1 | 0.069 |
| CN(C)CCCN1c2ccccc2CCc2ccc(Cl)cc21 | 0.197 |
| CO[C@@]1(NC(=O)C2SC(=C(C(N)=O)C(=O)O)S2)C(=O)N2C(C(=O)O)=C(CSc3nnnn3C)CS[C@@H]21 (stereo partly specified) | 0.0556 |
| Cc1cc(NC(=O)C2=C(O)c3ccccc3S(=O)(=O)N2C)no1 | 0.087 |
| O=C1c2ccccc2C(=O)c2ccccc21 | 0.0652 |
| Cc1cc(C(C)(C)CC(C)(C)C)ccc1OCCOCC[N+](C)(C)Cc1ccccc1 | 0.0236 |
| N=c1ccn2c(n1)O[C@H]1[C@H](O)[C@@H](CO)O[C@H]12 | 0.173 |
| CC(=O)Oc1c(C)cccc1C(=O)O | 0.267 |
| CCN(C(C)=O)c1cccc(-c2ccnc3c(C#N)cnn23)c1 | 0.108 |

— the supplement of paper PMC5770031
